In assay [1] the target is V5-SMAD4 (Sma Mothers Against Decapentaplegia homologue 4), expressed in 293T cells (human (cDNA of HEK293T cells)) (UniProt Q13485). The assay can be described thus: co-IP; 293T cells co-transfected with pLVET-Flag-GATA2 and pLVET-V5-SMAD4, 48 h; nondenaturing lysis buffer (50 mM Tris-HCl pH 8.0, 150 mM NaCl, 1 mM EDTA, 10% glycerol); anti-Flag or anti-V5 antibody at 4 °C overnight, protein G agarose beads, western blot.

Protein sequences, listed by entry. Tags and fused reporters are not part of them.
UniProt Q13485: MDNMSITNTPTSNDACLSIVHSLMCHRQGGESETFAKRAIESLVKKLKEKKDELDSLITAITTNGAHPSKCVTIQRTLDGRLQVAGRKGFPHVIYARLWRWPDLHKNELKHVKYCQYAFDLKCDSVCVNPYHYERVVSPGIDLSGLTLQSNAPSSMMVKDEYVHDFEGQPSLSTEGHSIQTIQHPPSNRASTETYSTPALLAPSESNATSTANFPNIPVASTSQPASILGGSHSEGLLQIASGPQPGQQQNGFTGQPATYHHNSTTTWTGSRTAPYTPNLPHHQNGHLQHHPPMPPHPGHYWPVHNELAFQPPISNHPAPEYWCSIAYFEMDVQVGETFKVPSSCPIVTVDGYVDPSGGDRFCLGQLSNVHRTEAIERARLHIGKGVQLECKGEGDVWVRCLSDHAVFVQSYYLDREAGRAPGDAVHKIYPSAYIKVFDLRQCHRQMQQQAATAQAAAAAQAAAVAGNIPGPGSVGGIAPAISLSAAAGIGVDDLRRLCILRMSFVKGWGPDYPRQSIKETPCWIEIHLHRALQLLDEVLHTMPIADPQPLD
UniProt P23769: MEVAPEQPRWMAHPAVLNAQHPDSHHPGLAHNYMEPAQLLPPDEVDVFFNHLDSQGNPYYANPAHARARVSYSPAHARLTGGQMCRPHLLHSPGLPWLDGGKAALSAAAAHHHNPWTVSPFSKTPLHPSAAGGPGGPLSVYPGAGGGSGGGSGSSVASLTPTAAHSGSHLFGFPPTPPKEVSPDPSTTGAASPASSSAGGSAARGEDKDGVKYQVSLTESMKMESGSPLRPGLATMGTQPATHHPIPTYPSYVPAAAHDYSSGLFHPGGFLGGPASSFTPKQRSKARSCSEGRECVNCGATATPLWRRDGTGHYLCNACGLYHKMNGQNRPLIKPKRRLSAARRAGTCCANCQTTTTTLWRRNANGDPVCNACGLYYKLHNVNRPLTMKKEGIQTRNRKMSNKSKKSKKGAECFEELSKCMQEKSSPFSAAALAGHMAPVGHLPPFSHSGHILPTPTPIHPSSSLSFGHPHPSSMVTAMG

For a further assay, the target named is GST-SMAD4 (UniProt Q13485). The assay can be described thus: pull-down; GST-SMAD4 from BL21 immobilised on glutathione agarose resin (4 °C, 2 h) and washed; 1F5 lysate with Flag-GATA2 added with or without 250 units/ml Benzonase, 4 °C, 14 h; eluted with glutathione, western blot; only the target purified. (In general: In western blotting, separated proteins are transferred to a membrane and probed.)

In assay [2] the target is Flag-GATA2 (endothelial transcription factor GATA-2), expressed in 293T cells (human (cDNA of HEK293T cells)) (UniProt P23769). The assay can be described thus: co-IP; 293T cells co-transfected with pLVET-Flag-GATA2 and pLVET-V5-SMAD4, 48 h; nondenaturing lysis buffer (50 mM Tris-HCl pH 8.0, 150 mM NaCl, 1 mM EDTA, 10% glycerol); anti-Flag or anti-V5 antibody at 4 °C overnight, protein G agarose beads, western blot.

In assay [3] the target is endogenous GATA2 of LNCaP cells (human (endogenous in LNCaP)) (UniProt P23769). Description: co-IP; endogenous proteins, LNCaP cell lysate in nondenaturing lysis buffer; protein G agarose beads, western blot.

Results are given in words; binding and its absence hold for the method and conditions named. Binding seen in cells or lysates may run through a third protein. Some results given as binding are weak or reduced against the parent protein; the word gives no strength.

Consider “Flag-GATA2 (endothelial transcription factor GATA-2), expressed in 293T cells (from UniProt P23769 1-480)”, for which the binding result in assay [1] is “binds”.
Consider “Flag-GATA2 from 1F5 cells stably overexpressing flag-GATA2 (from UniProt P23769 1-480)”, for which, in the assay with GST-SMAD4, the binding entry is “binds”.
“V5-SMAD4 (Sma Mothers Against Decapentaplegia homologue 4), expressed in 293T cells (from UniProt Q13485 1-552)”: the binding entry in assay [2] is recorded as “binds”.
For “endogenous SMAD4 of LNCaP cells (from UniProt Q13485 1-552)”, in assay [3], the binding result is “binds”.

The values are drawn from paper PMC10408074.
